Structures are written as SMILES. “And” between values parts separate entries of the source, which are not always exact repeats. Identical values can stand only once. The list shows a part of the results. These are further read-outs of the screen, such as a control signal, another cell line or another target. No call is given for them. Most of these compounds were active or inconclusive in the main read-out, so they are no random draw. Words in brackets tell the shape of the fitted curve; partial curves, single points and poor fits give uncertain potencies.

The term AC50 denotes the midpoint of the concentration-response curve, whichever way the signal moves.

A short description of this experiment: qHTS Assay for Identifying the Cell-Membrane Permeable IMPase Inhibitors. Particulars: CHO-M1 cells, IP1 accumulation, HTRF TR-FRET ratio; measured here: donor channel 620 nm AC50.
Regarding `CC(C)(C)c1ccc(OCC(=O)NNC(=O)Cc2cccs2)cc1`, the AC50 was 5.01 µM [rising, partial curve].

In the case of `NCC(O)COCCC12CC3CC(CC(C3)C1)C2` (stereo unspecified), the concentration at half-maximal activity (AC50) is 20 µM [falling, single point].

Consider `Cc1nn(C)c(C)c1N1C(=O)c2cccc3c(Br)ccc(c23)C1=O`, for which the AC50 is 15.8 µM [rising, partial curve].

In the case of `Cc1ccc(Cc2nnc3n(-c4cccc(C)c4)nc(C(=O)c4ccccc4)n3c2=O)cc1`, the AC50 was 0.794 µM [falling, full curve].

Regarding `CCNC(=O)CSc1nnc(-c2cccc(S(=O)(=O)N(CC)CC)c2)n1CCc1ccccc1`, the AC50 is 10 µM [rising, partial curve].

In the case of `COc1ccc(-n2c(C)cc(/C=C3\C(=O)NN(c4ccccc4)C3=O)c2C)cc1`, the AC50 was 17.8 µM [rising, single point].

As for `Oc1ccc(C2Nc3cccc4cccc(c34)N2)c(O)c1`, the concentration at half-maximal activity (AC50) is 15.8 µM [falling, single point].

In the case of `CCN(CC(=O)NCc1cccs1)c1nnnn1-c1ccccc1`, the AC50 was 3.98 µM [falling, single point].

As to `COC(=O)c1ccc(COC(=O)C(CCS(C)(=O)=O)N2C(=O)c3ccccc3C2=O)cc1` (stereo unspecified), the AC50 is 0.02 µM [falling, full curve, poor fit].

For the compound `O=C(c1ccco1)c1nnn(Cc2ccccc2)c1-c1ccccc1`, the AC50 is 1.26 µM [falling, partial curve, poor fit].

For the compound `Cc1c(C(=O)Nc2ccc(Cl)cn2)oc2ccccc12`, the AC50 is 5.01 µM [falling, single point].

For `NC(=O)CC(NC(=O)OCc1ccccc1)C(=O)O` (stereo unspecified), the AC50 was 0.126 µM [falling, full curve, poor fit].

`COc1ccc(CNC(=O)C(=O)NCC2CCCO2)cc1` (stereo unspecified): the AC50 was 0.01 µM [rising, full curve, poor fit].

Turning to `CC(C)(C)c1ccc(/C=C/C(=O)Nc2ccc(S(N)(=O)=O)cc2)cc1`, the AC50 is 35.5 µM [falling, single point].

On to `Cc1cc(C)c(NC(=O)COc2nc3ccccc3nc2C)c(C)c1`, for which the AC50 is 31.6 µM [rising, single point].

Consider `COC(=O)c1[nH]c2cc(OC)c(OC)cc2c1NC(=O)Oc1ccccc1`, for which the AC50 is 20 µM [falling, partial curve, poor fit].

On to `N#CC1=C(N)N(c2ccccc2)C(c2cccc([N+](=O)[O-])c2)C1(C#N)C#N` (stereo unspecified), for which the AC50 was 0.0501 µM [rising, full curve, poor fit].

As for `CC(C)NS(=O)(=O)c1ccc(OCC(=O)Nc2ccc3c(c2)OCCO3)cc1`, the AC50 is 35.5 µM [falling, single point].

Consider `Clc1ccc(-c2cc(COc3ccc4ccccc4c3)no2)cc1`, for which the AC50 was 25.1 µM [rising, single point].

Consider `CCCn1c(CC)nc([N+](=O)[O-])c1Sc1ccc(C)cc1`, for which the half-maximal activity concentration (AC50) was 3.98 µM [falling, partial curve, poor fit].

As for `O=C(C1CCCN(S(=O)(=O)c2ccc(Br)s2)C1)N1CCN(c2ccccc2)CC1` (stereo unspecified), the AC50 is 0.00501 µM [falling, full curve, poor fit].

As to `COc1ccc(-c2n[nH]c(C)c2-c2ccc(OC)c(OC)c2)c(O)c1`, the AC50 was 2.51 µM [rising, single point].

Take `COc1ccc(CCNC(=O)CSc2nc(-c3ccc(F)cc3)cc(C(F)(F)F)n2)cc1OC`: the AC50 was 0.00708 µM [rising, full curve, poor fit].

On to `CNC(=O)CC(=O)Nc1ccccc1C(=O)O`, for which the AC50 is 0.158 µM [falling, full curve, poor fit].

For `COc1ccc(/C(O)=C2/C(=O)C(=O)N(CCN(C)C)C2c2ccc(OC)c(OC)c2)c(C)c1` (stereo unspecified), the AC50 was 25.1 µM [falling, single point].

With `Cc1c(C(=O)OC2CCCC2)[nH]c2c1C(=O)CC(c1ccco1)C2` (stereo unspecified), the AC50 is 0.00447 µM [falling, full curve, poor fit].

On to `Cc1cc(C(C)(C)C)c(O)c(C)c1CC1=NCCN1`, for which the AC50 is 5.01 µM [rising, single point].

As for `Cc1ccc(Cn2c(CN3CCOCC3)nc3c2c(=O)[nH]c(=O)n3C)cc1`, the concentration at half-maximal activity (AC50) is 31.6 µM [rising, single point].

With `CCOc1cccc(Oc2ccc(C(F)(F)F)cn2)c1`, the AC50 was 3.98 µM [rising, single point].

On to `O=C(O)CCSc1ccc2ccccc2n1`, for which the AC50 was 20 µM [rising, partial curve] and 10 µM [rising, partial curve].

As for `Cc1ccc(-c2cc(C(F)(F)F)c(C#N)c(SCC(=O)Nc3ccccc3F)n2)cc1`, the AC50 is 0.794 µM [falling, full curve, poor fit].

`O=C(CSc1nc2ccccc2nc1SCC(=O)N1CCCCC1)N1CCCCC1`: the AC50 is 25.1 µM [rising, single point].

`O=C(NCC1CCCO1)c1nc2c(nnn2Cc2ccccc2Cl)c(=O)[nH]1` (stereo unspecified): the half-maximal activity concentration (AC50) was 5.01 µM [falling, single point].

As to `O=C(c1ccccc1)c1ccc(CN2C(=O)c3ccccc3C2=O)o1`, the AC50 was 25.1 µM [falling, single point].

On to `Cc1ccc2cc(CCNC(=O)CC(C)(C)C)c(=O)[nH]c2c1C`, for which the AC50 was 22.4 µM [rising, partial curve].

Turning to `COc1ccc(NC(=O)CSC2=NC(=O)CC(C)=N2)cc1`, the AC50 was 10 µM [falling, partial curve].

In the case of `COc1ccc(NC(=O)C(C/C=C(/C)Cl)C(C)=O)cc1` (stereo unspecified), the AC50 is 0.794 µM [falling, full curve].

For `Cc1onc(-c2ccccc2Cl)c1C(=O)Nc1nnc(-c2ccc(F)cc2)s1`, the AC50 was 14.1 µM [rising, single point].

For the compound `COCCNC(=O)c1onc(CSc2ccc(Cl)cc2)c1C(=O)O`, the AC50 is 0.631 µM [rising, full curve, poor fit].

In the case of `O=c1c2c3c(sc2nnn1Cc1ccc(Br)cc1)CCCC3`, the concentration at half-maximal activity (AC50) was 3.16 µM [falling, single point].

For `O=C(NCC1c2ccccc2CCN1C(=O)CN1CCOCC1)C1CCCCC1` (stereo unspecified), the AC50 is 0.02 µM [rising, full curve, poor fit].

Take `O=C(CNC(=O)c1ccccc1F)N/N=C/c1cn[nH]c1-c1ccccc1`: the AC50 is 4.47 µM [rising, full curve, poor fit].

Regarding `COc1ccccc1-c1nnc(SCC(=O)Nc2c(Cl)cccc2Cl)o1`, the AC50 was 25.1 µM [falling, partial curve, poor fit].

With `COc1cc(/C=N/NC(=O)c2ccc(O)cc2)ccc1Oc1ccc([N+](=O)[O-])cn1`, the AC50 is 35.5 µM [falling, single point].

Turning to `O=S(=O)(c1ccc2c(c1)OCCO2)N1CCC(n2nnc3cc(F)ccc32)CC1`, the AC50 was 0.00708 µM [falling, full curve, poor fit].

For `C/C(=C\C(=O)Nc1nccs1)c1ccccc1`, the concentration at half-maximal activity (AC50) was 5.01 µM [rising, single point].

In the case of `COc1cc2cc(CN(Cc3nnnn3Cc3ccco3)C3CCCCC3)c(=O)[nH]c2cc1OC`, the AC50 was 35.5 µM [rising, single point].

Turning to `Cc1oc2nc(SCC(=O)NCCCO)nc(N)c2c1C`, the AC50 is 0.251 µM [falling, full curve].

On to `N#Cc1nc(N2CCOCC2)nc(N2CCOCC2)n1`, for which the AC50 is 1 µM [falling, full curve, poor fit].

For the compound `Cc1[nH]c(C(=O)N/N=C/c2ccc(C(=O)O)cc2)c(C)c1C(=O)N/N=C/c1ccc(C(=O)O)cc1`, the AC50 is 11.2 µM [falling, single point].

As to `CCn1nnc(NC(=O)CSc2ccc(Cl)cc2)n1`, the AC50 was 2 µM [falling, full curve, poor fit].

Consider `O=C(C1CCN(c2nnc(-n3cccc3)s2)CC1)N1CCN(c2cccc(C(F)(F)F)c2)CC1`, for which the AC50 is 31.6 µM [rising, single point].

Consider `COc1cccc(NC(=O)CSc2nc(N)cc(N)n2)c1`, for which the AC50 was 35.5 µM [falling, single point].

With `O=C(NCCCCNC(=O)c1ccc(Cl)s1)c1ccc(Cl)s1`, the AC50 was 0.501 µM [falling, full curve].

Regarding `CCc1nnc(NC(=O)c2ccc(S(=O)(=O)N(CC)Cc3ccccc3)cc2)o1`, the AC50 was 0.0126 µM [falling, full curve].

With `CCCN1C=CC(=C/C=C(\C#N)C(=O)OCC)C=C1`, the AC50 was 31.6 µM [falling, single point].

With `CC(=O)Nc1cccc(N(C)S(C)(=O)=O)c1`, the AC50 is 5.62 µM [rising, single point].

For `CCCCOc1ccc(C2(C(=O)O)CCCC2)cc1`, the AC50 is 0.0398 µM [falling, full curve, poor fit].

As for `C/C(Cl)=C/Cn1c(SCC(C)C)nc2c1c(=O)[nH]c(=O)n2C`, the half-maximal activity concentration (AC50) is 25.1 µM [rising, single point].

Take `CCOCCCn1c(SCC(=O)NC(C)C)nc2ccccc2c1=O`: the AC50 is 5.01 µM [rising, single point].

In the case of `Cc1ccn2c(C(=O)N/N=C\c3ccc4c(c3)OCO4)c(C)nc2c1`, the AC50 was 11.2 µM [falling, partial curve].

On to `O=C(c1cccc(Cl)c1)N1CCN(C(=O)c2ccco2)CC1`, for which the AC50 is 3.16 µM [falling, partial curve].

Regarding `N#CC1=C(N2CCCCC2)c2cc3c(n2C1=O)CCCC3`, the AC50 was 3.98 µM [falling, full curve].

For the compound `Cc1ccc(NC2=NCC(=O)N2C2CCCC2)c(C)c1`, the AC50 is 5.01 µM [falling, single point].

Turning to `Cc1cc(C)cc(OCC(=O)Nc2ccc(N3CCN(S(C)(=O)=O)CC3)cc2)c1`, the AC50 was 6.31 µM [rising, full curve].

In the case of `COC(=O)CSc1nnc(CNC(=O)c2cc(OC)c(OC)c(OC)c2)n1C`, the AC50 is 0.501 µM [rising, full curve].
